Patent US20250059499A1 (THE UNIVERSITY OF BRITISH COLUMBIA, priority 2021, published 2025)

Assay: peptide made by a vendor
Details: whole synthesis, RP-HPLC, peak at 25.829 min

Ac-GQ(trt)Q(trt)Q(trt)LGGGGG-OH
purity (crude or final not stated): 83.28%
